We go through five molecules from paper PMC7291584.

Amino acid sequences for entries named in this document (tags omitted). Residues count along the entry.
UniProt Q07955: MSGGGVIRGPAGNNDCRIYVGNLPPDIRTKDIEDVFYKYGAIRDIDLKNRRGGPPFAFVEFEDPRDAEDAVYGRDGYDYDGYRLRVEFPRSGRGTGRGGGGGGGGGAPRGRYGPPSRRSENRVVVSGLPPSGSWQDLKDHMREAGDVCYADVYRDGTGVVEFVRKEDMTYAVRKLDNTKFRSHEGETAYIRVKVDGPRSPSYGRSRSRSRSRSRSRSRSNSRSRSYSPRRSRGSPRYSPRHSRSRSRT
UniProt Q13443, residues 29-819: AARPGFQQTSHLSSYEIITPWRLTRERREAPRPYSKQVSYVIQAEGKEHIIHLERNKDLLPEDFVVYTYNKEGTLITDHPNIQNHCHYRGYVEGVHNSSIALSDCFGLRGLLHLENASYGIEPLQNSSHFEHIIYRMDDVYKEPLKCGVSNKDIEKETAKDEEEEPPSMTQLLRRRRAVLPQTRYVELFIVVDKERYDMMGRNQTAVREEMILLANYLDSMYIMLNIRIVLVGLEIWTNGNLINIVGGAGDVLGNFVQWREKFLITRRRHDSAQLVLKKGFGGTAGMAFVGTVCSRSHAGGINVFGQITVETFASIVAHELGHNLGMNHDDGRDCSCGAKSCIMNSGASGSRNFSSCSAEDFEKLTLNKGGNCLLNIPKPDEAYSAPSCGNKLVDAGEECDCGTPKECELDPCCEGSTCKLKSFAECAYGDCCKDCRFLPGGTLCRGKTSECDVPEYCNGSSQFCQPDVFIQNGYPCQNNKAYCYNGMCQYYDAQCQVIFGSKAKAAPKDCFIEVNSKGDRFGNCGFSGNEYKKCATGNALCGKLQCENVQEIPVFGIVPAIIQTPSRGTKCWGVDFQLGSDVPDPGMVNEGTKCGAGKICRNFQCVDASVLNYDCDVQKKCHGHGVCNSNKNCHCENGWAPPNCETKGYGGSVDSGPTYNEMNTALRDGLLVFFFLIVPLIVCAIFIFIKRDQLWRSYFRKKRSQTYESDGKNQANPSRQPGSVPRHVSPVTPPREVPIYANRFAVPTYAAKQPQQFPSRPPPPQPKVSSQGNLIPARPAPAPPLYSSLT
UniProt Q14676: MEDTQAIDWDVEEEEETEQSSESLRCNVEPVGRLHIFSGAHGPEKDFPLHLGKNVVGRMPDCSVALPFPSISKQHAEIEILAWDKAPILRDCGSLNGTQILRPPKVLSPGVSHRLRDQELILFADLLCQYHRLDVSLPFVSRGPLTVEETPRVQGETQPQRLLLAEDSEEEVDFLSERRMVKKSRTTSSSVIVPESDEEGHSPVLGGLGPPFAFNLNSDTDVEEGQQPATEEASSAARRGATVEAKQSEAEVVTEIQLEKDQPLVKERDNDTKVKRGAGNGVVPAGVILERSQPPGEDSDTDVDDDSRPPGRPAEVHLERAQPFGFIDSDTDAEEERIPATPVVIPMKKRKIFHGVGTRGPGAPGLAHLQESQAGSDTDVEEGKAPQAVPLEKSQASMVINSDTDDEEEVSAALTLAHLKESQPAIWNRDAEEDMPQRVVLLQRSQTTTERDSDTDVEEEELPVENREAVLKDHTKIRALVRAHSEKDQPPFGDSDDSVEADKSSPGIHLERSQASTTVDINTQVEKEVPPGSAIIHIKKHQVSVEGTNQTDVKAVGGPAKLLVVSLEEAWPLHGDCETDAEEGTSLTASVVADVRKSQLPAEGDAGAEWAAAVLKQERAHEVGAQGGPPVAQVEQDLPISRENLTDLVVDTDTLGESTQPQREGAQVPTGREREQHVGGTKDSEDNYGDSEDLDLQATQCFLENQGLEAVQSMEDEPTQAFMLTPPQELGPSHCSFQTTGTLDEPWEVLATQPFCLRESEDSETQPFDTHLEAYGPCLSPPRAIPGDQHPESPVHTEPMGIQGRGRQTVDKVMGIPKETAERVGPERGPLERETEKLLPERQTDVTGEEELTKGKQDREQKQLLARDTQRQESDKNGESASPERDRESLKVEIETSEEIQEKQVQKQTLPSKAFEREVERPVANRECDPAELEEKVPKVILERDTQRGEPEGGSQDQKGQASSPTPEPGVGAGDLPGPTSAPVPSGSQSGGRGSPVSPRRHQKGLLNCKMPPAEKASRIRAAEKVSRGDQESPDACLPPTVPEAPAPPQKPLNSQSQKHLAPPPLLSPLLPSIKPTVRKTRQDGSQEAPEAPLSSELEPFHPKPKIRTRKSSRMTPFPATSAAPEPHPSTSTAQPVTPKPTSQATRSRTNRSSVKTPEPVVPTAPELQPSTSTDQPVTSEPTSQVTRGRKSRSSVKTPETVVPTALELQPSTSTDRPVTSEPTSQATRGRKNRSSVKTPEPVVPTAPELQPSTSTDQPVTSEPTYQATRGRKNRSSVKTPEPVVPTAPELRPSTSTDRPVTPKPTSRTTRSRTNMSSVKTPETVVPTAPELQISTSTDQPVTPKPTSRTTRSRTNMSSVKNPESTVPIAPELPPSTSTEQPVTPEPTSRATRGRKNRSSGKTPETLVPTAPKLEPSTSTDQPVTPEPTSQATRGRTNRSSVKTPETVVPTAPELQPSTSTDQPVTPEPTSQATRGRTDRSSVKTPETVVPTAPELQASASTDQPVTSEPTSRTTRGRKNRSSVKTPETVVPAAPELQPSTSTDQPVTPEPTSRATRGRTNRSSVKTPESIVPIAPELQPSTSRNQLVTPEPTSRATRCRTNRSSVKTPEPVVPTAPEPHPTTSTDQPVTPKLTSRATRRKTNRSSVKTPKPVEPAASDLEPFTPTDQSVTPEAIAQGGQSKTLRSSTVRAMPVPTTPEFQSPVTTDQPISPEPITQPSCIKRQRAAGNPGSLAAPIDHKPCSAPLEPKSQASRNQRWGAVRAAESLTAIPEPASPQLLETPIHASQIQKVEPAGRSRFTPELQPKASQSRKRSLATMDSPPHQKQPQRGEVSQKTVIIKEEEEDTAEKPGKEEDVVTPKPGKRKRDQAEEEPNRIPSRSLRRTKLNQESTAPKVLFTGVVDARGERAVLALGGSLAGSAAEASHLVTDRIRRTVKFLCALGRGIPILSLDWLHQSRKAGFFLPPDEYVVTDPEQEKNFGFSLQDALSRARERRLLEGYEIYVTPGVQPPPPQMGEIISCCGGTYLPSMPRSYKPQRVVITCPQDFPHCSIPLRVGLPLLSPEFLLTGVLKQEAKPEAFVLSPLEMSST

No constants are given. Whether binding was seen depends on the method and setting. In cells and extracts the contact can be indirect. These calls come from enrichment with a bait or labelling near it, and not all partners need be listed. For part of these data: A no says only that the protein was not detected with the bait. For part of these data: Tags and fused reporters may be left off the sequences shown.

Assay [1] addresses T1, Inhibitor of differentiation 4 (ID4) (human (endogenous in HCC70, MDA-MB-468, HCC1954, OVKATE and patient-derived xenografts)) (UniProt P47928).
T1 sequence: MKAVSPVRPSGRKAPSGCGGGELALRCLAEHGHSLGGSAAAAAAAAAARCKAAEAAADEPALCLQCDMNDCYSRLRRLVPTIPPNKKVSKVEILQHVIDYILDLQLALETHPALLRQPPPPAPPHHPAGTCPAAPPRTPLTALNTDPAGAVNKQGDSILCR
The experiment in a line: affinity purification with mass spectrometry; RIME: cells (HCC70, MDA-MB-468, HCC1954, OVKATE) cross-linked with paraformaldehyde for 7 min, sonicated, IP with anti-ID4 against control IgG, on-bead trypsin digest, nanoLC-MS/MS; biological triplicate.

The target of assay [2] is T1, Inhibitor of differentiation 4 (ID4) (human (endogenous in HCC70, MDA-MB-468, HCC1954, OVKATE and patient-derived xenografts)). The assay is described as follows: affinity purification with mass spectrometry; RIME on PDX tumours HCI001, HCI002, HCI009, cross-linked in 1% formaldehyde at 4 °C for 20 min; anti-ID4 against IgG; discovery MS and SWATH label-free quantification on the same sample.

Take SRSF1 (from UniProt Q07955 1-248): the binding entry in assay [1] is given as “no binding”.
For “disintegrin and metalloprotease domain 9 protein (ADAM9) (from UniProt Q13443 29-819)”, the binding result in assay [1] is reported as “binds”.
With “mediator of DNA damage checkpoint 1 (MDC1) (from UniProt Q14676 1-2089)”, the binding result in assay [2] and in assay [1] was “binds” in each case.

B1: Histidine Rich Glycoprotein (HRG) (protein, UniProt P04196 19-525)
chain: VSPTDCSAVEPEAEKALDLINKRRRDGYLFQLLRIADAHLDRVENTTVYYLVLDVQESDCSVLSRKYWNDCEPPDSRRPSEIVIGQCKVIATRHSHESQDLRVIDFNCTTSSVSSALANTKDSPVLIDFFEDTERYRKQANKALEKYKEENDDFASFRVDRIERVARVRGGEGTGYFVDFSVRNCPRHHFPRHPNVFGFCRADLFYDVEALDLESPKNLVINCEVFDPQEHENINGVPPHLGHPFHWGGHERSSTTKPPFKPHGSRDHHHPHKPHEHGPPPPPDERDHSHGPPLPQGPPPLLPMSCSSCQHATFGTNGAQRHSHNNNSSDLHPHKHHSHEQHPHGHHPHAHHPHEHDTHRQHPHGHHPHGHHPHGHHPHGHHPHGHHPHCHDFQDYGPCDPPPHNQGHCCHGHGPPPGHLRRRGPGKGPRPFHCRQIGSVYRLPPLRKGEVLPLPEANFPSFPLPHHKHPLKPDNQPFPQSVSESCPGKFKSGFPQVSMFFTHTFPK
B1: in assay [1], the binding entry was “binds”.

B2: spectrin repeat containing nuclear envelope family member 3 (SYNE3) (protein, UniProt Q6ZMZ3 1-975)
chain: MTQQPQDDFDRSVEDAQAWMKAVQDQLQVNDNTQGPRAALEARLWETEKICQLEPEGRVRVDLVLRMAEALLACCPGDQKPGILARLKDIKAQWEETVTYMTHCHSRIEWVWLHWSEYLLARDEFYRWFQKMMVTLEPHIELQLGLKEKQWQLSHAQVLLHNVDNQAVLLDRLLEEAASLFNRIGDPSVDEDAQKRMKAEYDAVKAKAQKRVDLLEQVAREHEEYQAGVDEFQLWLKAVVEKVNGCLGRNCKLPITQRLSTLQDIAKDFPRGEESLETLEEQSAGVIRNTSPLGAEKITGELEEMRKVLEKLRALWEEEEERLRGLLRSRGAWEQQIKQLEAELSEFRMVLQRLAQEGLQPAAKAGTEDELVAHWRRYSATRAALASEEPRVDRLQAQLKELIVFPHNLKPLSDSVIATIQEYQSLKVKSARLRNAAAVELWQHFQRPLQDLQLWKALAQRLLEVTASLPDLPSLHTFLPQIEAALMESSRLKELLTMLQLKKDLLIGIFGQERATALLEQVAGSMRDRDLLHNSLLQRKSKLQSLLAQHKDFGAAFEPLQRKLLDLQVRVQAEKGLQRDLPGKQAQLSRLQGLQEEGLDLGAQMEAARPLVQENPNHQHKMDQLSSDFQALQRSLEDLVDRCRQSVQEHCTFSHQLLELRQWIVVTTQKLEAHRGEAGPGDAESQEAEFERLVAEFPEKEAQLSLVEAQGWLVMEKSSPEGAAVVQEELRELAESWRALRLLEESLLSLIRNWHLQRMEVDSGKKMVFTNNIPKSGFLINPMDPIPRHRRRANLLQEEEGSHEDFSQLLRNFGQWLQVENSKLVRIIAMRTSTAEDLRTRKSKLQELEARVPEGQHLFENLLRLGPARGTSDELEDLRYQWMLYKSKLKDSGHLLTQSSPGEPTGFQKTRRWRGLGSLFRRACCVALPLQLLLLLFLLLLFLLPIREEDRSCTLANNFARSFTLMLRYNGPPPT
Take B2: in assay [1], the binding result is “binds”.
